Record: PubChem BioAssay AID1259254 (NCATS, 2017)
Aim: 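Genome-wide screen for genes that prevent DNA re-replication in cancer cells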 (primary screen). System: human HCT116 colorectal cancer cells. Reagent: single siRNA against human genes. Time to read-out: 3 days. Measurement: 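Imaged Hoechst DNA stain sorts each cell into a cycle phase by DNA amount; per plate, G2 fraction set to 0% for non-targeting and 100% for GMNN siRNA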. Reading the numbers: G2 robust z-score: higher = more G2 cells, more excess DNA replication. Active means: 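An siRNA counts as active if its G2 robust z-score lies at least 5 MADs above the screen median; here such calls match roughly 38% of GMNN control or more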.
The whole screen tested about 59,000 reagents; below is an unselected part. Over the whole deposit, about 1,550 (2.6%) got an active call. 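G2 share is only a proxy for re-replication; each gene was hit by three separate siRNAs, and active genes were retested.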 Entries without a mark were called inactive. The numbers tell different reagents against one gene apart. Not all columns of the deposit are shown. Not stated in the record: the amount of reagent.

SLC14A2 (GeneID 8170) #1
- G2 robust z-score: -0.774

SLC14A2 (GeneID 8170) #2
- G2 robust z-score: 0.0557

SLC14A2 (GeneID 8170) #3
- G2 robust z-score: 0.237

KIF14 (GeneID 9928) #1
- G2 robust z-score: -0.504

KIF14 (GeneID 9928) #2
- G2 robust z-score: 2.02

KIF14 (GeneID 9928) #3
- G2 robust z-score: -0.209

IL31 (GeneID 386653) #1
- G2 robust z-score: 2.35

IL31 (GeneID 386653) #2
- G2 robust z-score: 0.0311

IL31 (GeneID 386653) #3
- G2 robust z-score: -0.459

VMAC (GeneID 400673) #1
- G2 robust z-score: -0.361

VMAC (GeneID 400673) #2
- G2 robust z-score: -0.323

VMAC (GeneID 400673) #3
- G2 robust z-score: -0.163

Targets listed so far whose gene name begins with I or i (3):
IL31 (GeneID 386653) #1
- G2 robust z-score: 2.35

IL31 (GeneID 386653) #2
- G2 robust z-score: 0.0311

IL31 (GeneID 386653) #3
- G2 robust z-score: -0.459

Additional results follow.
NAB2 (GeneID 4665) #1
- G2 robust z-score: -0.0658

NAB2 (GeneID 4665) #2
- G2 robust z-score: 0.0305

NAB2 (GeneID 4665) #3
- G2 robust z-score: 0.551

GALM (GeneID 130589) #1
- G2 robust z-score: 1.79

GALM (GeneID 130589) #2
- G2 robust z-score: -1.36

GALM (GeneID 130589) #3
- G2 robust z-score: -0.257

COA5 (GeneID 493753) #1
- G2 robust z-score: -0.684

COA5 (GeneID 493753) #2
- G2 robust z-score: -0.232

COA5 (GeneID 493753) #3
- G2 robust z-score: -0.532

GK2 (GeneID 2712) #1
- G2 robust z-score: -0.393

GK2 (GeneID 2712) #2
- G2 robust z-score: -0.555

GK2 (GeneID 2712) #3
- G2 robust z-score: 0.164
